Article PMC4225224
Results are given in words; binding and its absence hold for the method and conditions named. Binding seen in cells or lysates may run through a third protein. Some entries that bind do so weakly or less than the wild type. For part of these data: Sequences can lack the tags named with a protein.

Protein sequences, listed by entry. Tags and fused reporters are not part of them.
UniProt Q00987: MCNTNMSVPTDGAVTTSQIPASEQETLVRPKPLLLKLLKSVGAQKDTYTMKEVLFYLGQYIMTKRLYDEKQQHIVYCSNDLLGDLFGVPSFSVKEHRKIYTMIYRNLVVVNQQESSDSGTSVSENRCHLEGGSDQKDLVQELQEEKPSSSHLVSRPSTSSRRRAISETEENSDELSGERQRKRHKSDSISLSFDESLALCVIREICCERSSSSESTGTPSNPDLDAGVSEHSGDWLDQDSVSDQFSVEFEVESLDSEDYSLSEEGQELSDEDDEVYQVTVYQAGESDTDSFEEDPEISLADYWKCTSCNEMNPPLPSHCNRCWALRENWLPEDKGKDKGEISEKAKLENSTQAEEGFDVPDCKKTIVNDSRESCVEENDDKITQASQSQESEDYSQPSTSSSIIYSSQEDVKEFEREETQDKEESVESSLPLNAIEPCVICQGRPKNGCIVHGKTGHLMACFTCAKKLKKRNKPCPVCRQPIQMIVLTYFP

T1: Myc-tagged Che-1 (UniProt Q9NY61)
T1 sequence: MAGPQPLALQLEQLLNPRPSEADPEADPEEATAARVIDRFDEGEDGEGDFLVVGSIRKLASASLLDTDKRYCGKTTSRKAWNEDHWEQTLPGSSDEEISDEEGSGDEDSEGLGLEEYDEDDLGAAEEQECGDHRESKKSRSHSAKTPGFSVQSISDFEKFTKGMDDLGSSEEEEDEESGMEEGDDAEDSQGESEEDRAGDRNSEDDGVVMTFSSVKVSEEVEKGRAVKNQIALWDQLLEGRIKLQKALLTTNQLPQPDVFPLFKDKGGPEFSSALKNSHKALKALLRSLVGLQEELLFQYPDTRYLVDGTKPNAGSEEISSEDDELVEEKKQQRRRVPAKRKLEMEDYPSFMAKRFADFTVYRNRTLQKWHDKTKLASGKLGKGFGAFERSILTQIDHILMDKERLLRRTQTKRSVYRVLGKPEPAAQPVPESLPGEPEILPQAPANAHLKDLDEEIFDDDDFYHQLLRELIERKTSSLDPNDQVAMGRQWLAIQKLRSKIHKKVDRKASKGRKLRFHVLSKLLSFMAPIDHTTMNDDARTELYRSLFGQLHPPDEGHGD

B1: Che-1/AATF (endogenous) (protein, UniProt Q9NY61 1-560)
chain: T1 sequence
B2: GFP-HIPK2 (1-838) (domain or fragment, UniProt Q9H2X6 1-838)
chain: MAPVYEGMASHVQVFSPHTLQSSAFCSVKKLKIEPSSNWDMTGYGSHSKVYSQSKNIPLSQPATTTVSTSLPVPNPSLPYEQTIVFPGSTGHIVVTSASSTSVTGQVLGGPHNLMRRSTVSLLDTYQKCGLKRKSEEIENTSSVQIIEEHPPMIQNNASGATVATATTSTATSKNSGSNSEGDYQLVQHEVLCSMTNTYEVLEFLGRGTFGQVVKCWKRGTNEIVAIKILKNHPSYARQGQIEVSILARLSTESADDYNFVRAYECFQHKNHTCLVFEMLEQNLYDFLKQNKFSPLPLKYIRPVLQQVATALMKLKSLGLIHADLKPENIMLVDPSRQPYRVKVIDFGSASHVSKAVCSTYLQSRYYRAPEIILGLPFCEAIDMWSLGCVIAELFLGWPLYPGASEYDQIRYISQTQGLPAEYLLSAGTKTTRFFNRDTDSPYPLWRLKTPDDHEAETGIKSKEARKYIFNCLDDMAQVNMTTDLEGSDMLVEKADRREFIDLLKKMLTIDADKRITPIETLNHPFVTMTHLLDFPHSTHVKSCFQNMEICKRRVNMYDTVNQSKTPFITHVAPSTSTNLTMTFNNQLTTVHNQAPSSTSATISLANPEVSILNYPSTLYQPSAASMAAVAQRSMPLQTGTAQICARPDPFQQALIVCPPGFQGLQASPSKHAGYSVRMENAVPIVTQAPGAQPLQIQPGLLAQQAWPSGTQQILLPPAWQQLTGVATHTSVQHATVIPETMAGTQQLADWRNTHAHGSHYNPIMQQPALLTGHVTLPAAQPLNVGVAHVMRQQPTSTTSSRKSKQHQSSVRNVSTCEVSSSQAISSPQRSKRVKENT

Experiments:
[1] = biological target: HDM2/MDM2 human double minute 2, E3 ubiquitin protein ligase (endogenous) (human (endogenous in HCT116)) (UniProt Q00987); assay: co-IP; HCT116 cells transiently transfected with GFP-HIPK2 or GFP-K221R and treated with ADR; total cell extracts immunoprecipitated with anti-HDM2 (anti-MDM2) antibody, western blot
[2] = biological target: Homeodomain-interacting protein kinase 2 (endogenous) (human (endogenous in HCT116)) (UniProt Q9H2X6); assay: co-IP; HCT116 total cell extracts, untreated or treated 24 h with 2 uM ADR; immunoprecipitated with anti-HIPK2 antibody, western blot; lysis buffer 50 mM Tris-HCl pH 7.4, 250 mM NaCl, 0.1% Triton, 5 mM EDTA, 25 mM NaF, 4 °C
Myc-tagged Che-1 = biological target: T1, Myc-tagged Che-1; assay: co-IP; HCT116 cells transiently transfected with Myc-Che-1 (or its deletion mutants) and GFP-HIPK2 (or its deletion mutant); total cell extracts immunoprecipitated with anti-Myc antibody, western blot

Row | Binder | binding [1] | binding [2] | binding (Myc-tagged Che-1)
1 | B1 | binds | binds | 
2 | B2 |  |  | binds
